{"source": "patent US5167963A", "about": "“8,10-dideazatetrahydrofolic acid derivatives” (SRI International, priority 1990, dated 1992)", "origin": "cited, not measured here", "system": "dihydrofolate reductase", "conditions": "in words; from prior literature/patents; cited from earlier work", "note": "For at least one compound, name, drawing or mass did not settle the structure.", "data": [{"smiles": "Nc1nc(N)c2nc(CNc3ccc(C(=O)N[C@@H](CCC(=O)O)C(=O)O)cc3)cnc2n1", "note": "[Aminopterin]", "values": [{"measurement": "inhibition of dihydrofolate reductase", "result": "inhibiting dihydrofolate reductase (DHFR)"}]}]}
